The values below come from the supplement of paper PMC10849652.

Protein sequences, listed by entry. Tags and fused reporters are not part of them. Lines headed by an entry give the natural chain unless they say otherwise; changes in a name come on top.
UniProt Q13601: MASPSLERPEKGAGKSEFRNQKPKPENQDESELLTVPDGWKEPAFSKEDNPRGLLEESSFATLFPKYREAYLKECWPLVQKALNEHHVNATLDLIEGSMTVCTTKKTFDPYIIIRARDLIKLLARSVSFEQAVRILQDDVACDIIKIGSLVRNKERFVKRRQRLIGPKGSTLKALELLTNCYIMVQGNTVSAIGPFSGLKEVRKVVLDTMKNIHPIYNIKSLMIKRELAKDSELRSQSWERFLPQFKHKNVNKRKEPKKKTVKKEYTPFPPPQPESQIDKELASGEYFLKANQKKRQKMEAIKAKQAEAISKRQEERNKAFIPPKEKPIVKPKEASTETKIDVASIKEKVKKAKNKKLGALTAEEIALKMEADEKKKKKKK
UniProt P01591, whole entry, looked up: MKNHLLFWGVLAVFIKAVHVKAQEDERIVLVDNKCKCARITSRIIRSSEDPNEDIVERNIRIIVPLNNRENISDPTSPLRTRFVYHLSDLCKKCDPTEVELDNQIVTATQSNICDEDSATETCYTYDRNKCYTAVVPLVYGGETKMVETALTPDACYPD
UniProt Q15053: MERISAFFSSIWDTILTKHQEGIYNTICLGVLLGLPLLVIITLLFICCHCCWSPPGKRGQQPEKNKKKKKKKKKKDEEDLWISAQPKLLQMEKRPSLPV
UniProt Q9Y2U9: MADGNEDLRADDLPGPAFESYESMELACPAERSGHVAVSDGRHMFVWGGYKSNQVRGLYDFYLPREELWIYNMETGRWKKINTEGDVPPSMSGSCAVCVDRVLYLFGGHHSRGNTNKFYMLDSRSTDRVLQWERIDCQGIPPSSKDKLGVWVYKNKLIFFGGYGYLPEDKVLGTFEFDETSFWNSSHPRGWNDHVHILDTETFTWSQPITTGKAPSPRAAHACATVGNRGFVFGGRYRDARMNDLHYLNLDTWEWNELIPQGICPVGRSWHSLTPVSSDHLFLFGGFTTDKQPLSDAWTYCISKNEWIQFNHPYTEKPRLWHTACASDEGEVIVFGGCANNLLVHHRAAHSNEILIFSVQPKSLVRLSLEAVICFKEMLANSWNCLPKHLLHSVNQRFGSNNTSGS
UniProt Q8N4N3: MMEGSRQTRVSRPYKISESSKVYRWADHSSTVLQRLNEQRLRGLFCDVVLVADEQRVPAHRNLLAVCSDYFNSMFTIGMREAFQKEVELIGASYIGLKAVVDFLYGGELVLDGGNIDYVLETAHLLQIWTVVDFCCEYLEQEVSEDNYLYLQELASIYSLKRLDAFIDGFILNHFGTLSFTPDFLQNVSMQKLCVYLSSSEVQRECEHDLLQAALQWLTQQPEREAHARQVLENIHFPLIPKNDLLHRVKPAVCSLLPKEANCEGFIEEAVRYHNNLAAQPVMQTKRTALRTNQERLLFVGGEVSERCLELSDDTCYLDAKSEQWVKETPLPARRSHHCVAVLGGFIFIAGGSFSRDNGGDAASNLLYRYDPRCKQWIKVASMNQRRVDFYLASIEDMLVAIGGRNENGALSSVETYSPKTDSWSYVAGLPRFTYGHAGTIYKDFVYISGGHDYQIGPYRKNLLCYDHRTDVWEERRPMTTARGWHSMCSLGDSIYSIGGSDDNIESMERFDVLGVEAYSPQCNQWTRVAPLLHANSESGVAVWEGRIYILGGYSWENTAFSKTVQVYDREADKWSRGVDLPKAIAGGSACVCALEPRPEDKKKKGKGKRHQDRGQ
UniProt Q9Y4C1: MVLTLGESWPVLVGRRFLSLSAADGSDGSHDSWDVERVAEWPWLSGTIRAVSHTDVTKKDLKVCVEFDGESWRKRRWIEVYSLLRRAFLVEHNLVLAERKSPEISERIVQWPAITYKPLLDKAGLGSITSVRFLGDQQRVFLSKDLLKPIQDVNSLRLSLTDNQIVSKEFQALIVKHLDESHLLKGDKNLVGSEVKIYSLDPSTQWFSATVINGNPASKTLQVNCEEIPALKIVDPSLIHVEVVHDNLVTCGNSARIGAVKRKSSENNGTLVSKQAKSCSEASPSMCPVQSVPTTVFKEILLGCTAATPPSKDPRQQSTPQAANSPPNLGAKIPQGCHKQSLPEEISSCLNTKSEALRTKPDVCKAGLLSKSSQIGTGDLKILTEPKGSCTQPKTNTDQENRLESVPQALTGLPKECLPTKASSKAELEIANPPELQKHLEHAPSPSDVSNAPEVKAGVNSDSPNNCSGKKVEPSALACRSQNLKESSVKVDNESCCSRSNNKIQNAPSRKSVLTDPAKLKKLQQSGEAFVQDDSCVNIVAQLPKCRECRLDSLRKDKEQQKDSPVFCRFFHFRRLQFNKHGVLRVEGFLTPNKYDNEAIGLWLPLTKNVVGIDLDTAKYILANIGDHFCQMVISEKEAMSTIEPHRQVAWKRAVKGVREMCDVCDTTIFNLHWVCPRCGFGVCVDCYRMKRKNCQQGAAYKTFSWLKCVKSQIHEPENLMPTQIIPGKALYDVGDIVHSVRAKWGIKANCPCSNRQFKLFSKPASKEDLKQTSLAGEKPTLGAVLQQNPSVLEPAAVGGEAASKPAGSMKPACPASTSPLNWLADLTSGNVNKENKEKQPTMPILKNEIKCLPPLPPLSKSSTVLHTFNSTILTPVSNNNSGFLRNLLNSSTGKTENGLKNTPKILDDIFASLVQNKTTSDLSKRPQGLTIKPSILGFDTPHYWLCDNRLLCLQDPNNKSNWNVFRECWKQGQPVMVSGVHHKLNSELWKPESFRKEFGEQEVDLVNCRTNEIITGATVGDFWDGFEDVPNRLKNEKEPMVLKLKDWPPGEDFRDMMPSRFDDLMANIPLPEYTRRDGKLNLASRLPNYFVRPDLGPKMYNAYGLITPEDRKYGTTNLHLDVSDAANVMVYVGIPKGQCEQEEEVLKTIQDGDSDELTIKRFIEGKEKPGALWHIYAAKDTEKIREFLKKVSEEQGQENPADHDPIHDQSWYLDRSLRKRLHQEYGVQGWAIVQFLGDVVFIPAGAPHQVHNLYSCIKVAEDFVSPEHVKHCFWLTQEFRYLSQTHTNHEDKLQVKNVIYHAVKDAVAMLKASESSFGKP
UniProt Q9Y2M5: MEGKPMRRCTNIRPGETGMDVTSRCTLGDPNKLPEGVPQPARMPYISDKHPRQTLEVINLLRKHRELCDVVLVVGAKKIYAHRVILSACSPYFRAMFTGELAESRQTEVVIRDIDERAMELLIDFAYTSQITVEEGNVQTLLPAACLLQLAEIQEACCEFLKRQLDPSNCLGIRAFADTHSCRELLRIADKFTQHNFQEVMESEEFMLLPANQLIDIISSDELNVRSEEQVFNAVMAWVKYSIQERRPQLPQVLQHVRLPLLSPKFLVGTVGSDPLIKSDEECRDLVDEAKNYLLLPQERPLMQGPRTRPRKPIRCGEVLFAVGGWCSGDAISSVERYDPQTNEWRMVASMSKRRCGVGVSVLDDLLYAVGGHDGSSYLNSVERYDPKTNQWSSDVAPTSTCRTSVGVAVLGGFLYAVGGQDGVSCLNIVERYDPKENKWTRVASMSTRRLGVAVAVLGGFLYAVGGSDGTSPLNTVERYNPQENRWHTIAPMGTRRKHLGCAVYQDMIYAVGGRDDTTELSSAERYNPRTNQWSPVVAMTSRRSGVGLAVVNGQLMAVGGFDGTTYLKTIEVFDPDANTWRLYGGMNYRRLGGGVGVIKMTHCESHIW
UniProt Q9H1H9: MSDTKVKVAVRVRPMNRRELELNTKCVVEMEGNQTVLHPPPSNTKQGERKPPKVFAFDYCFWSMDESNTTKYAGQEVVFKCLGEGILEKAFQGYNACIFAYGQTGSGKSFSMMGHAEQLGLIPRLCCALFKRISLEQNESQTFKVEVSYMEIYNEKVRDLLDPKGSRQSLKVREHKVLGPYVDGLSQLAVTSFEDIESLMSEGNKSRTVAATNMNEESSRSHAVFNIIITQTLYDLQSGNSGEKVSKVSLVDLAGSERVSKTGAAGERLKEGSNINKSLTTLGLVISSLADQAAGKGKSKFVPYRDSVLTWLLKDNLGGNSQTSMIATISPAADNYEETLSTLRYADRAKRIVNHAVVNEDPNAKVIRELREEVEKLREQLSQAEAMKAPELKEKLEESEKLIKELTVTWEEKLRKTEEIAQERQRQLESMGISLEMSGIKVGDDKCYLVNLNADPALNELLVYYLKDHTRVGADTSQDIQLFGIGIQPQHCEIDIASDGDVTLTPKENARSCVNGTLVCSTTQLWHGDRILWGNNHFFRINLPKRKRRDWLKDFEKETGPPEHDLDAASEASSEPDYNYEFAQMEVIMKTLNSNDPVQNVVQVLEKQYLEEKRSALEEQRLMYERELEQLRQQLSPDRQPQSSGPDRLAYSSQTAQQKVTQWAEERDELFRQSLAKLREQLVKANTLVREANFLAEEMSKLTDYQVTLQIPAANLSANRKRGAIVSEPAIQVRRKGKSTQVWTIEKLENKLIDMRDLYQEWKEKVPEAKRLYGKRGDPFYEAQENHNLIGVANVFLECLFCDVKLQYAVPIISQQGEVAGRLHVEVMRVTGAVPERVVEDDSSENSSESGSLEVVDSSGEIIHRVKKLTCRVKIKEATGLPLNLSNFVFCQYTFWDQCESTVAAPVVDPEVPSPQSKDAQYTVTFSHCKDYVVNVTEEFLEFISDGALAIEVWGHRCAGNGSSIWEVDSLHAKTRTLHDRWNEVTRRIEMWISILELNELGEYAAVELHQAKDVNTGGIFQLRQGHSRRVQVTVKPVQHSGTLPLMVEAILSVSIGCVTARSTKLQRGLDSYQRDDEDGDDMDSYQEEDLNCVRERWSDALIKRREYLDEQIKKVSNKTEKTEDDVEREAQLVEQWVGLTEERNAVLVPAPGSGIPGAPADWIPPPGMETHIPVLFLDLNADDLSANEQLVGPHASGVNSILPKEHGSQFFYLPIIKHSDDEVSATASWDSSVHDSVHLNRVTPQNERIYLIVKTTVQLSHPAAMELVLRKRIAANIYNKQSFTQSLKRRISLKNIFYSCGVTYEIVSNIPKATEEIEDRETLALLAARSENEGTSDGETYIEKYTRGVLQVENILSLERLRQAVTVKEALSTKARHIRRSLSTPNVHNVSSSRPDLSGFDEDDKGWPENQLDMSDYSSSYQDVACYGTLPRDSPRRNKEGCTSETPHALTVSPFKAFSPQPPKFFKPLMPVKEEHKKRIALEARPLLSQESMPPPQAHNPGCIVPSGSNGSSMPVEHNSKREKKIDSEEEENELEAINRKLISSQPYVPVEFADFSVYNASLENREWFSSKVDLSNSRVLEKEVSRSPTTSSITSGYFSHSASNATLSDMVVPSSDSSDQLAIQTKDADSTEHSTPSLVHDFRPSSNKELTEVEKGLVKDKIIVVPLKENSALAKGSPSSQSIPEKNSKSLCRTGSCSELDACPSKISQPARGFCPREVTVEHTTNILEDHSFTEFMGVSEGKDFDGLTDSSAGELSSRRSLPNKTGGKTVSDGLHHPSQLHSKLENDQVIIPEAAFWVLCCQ
UniProt Q9P2K6: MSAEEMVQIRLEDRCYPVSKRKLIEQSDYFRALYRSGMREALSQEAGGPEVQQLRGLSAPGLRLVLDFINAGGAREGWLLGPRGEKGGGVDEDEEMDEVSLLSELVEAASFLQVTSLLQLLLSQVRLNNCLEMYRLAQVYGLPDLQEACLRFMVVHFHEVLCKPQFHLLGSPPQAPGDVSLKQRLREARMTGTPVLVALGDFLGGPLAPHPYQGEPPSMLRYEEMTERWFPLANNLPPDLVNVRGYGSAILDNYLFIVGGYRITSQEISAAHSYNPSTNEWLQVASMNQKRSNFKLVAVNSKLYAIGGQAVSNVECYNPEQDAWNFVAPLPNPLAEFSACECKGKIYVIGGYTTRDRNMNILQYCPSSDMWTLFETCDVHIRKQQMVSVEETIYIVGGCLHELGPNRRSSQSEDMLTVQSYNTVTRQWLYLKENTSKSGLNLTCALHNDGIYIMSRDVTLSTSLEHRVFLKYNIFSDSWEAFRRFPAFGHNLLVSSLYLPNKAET
UniProt Q9H079: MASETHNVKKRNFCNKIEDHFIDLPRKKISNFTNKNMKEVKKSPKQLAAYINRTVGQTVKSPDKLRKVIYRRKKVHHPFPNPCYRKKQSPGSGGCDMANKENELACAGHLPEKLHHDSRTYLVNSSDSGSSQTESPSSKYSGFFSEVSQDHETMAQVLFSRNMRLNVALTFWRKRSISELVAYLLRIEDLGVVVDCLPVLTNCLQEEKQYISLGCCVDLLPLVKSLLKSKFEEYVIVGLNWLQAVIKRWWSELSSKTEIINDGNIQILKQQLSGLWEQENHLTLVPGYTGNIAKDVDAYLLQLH
UniProt Q96MP8: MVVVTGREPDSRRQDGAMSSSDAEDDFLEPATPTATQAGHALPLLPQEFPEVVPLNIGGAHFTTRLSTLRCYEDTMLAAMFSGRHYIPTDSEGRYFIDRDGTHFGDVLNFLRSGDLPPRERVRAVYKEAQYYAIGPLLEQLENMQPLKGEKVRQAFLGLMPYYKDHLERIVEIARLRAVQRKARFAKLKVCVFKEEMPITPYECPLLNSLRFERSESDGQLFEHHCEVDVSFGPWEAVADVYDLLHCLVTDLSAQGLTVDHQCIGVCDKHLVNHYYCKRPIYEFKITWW

The list shows a part of the results. Residues, ends and D or L forms follow the SMILES beside them. *: point of attachment. Cbz = O=C(OCc1ccccc1)*

Common to all, as to assay: log2 fold change, soluble protein after heating vs DMSO (PISA); higher = thermal stabilisation; K562 cells, 10 uM, 30 min; active = over 0.2 and 3.5 SD of the protein, either way, in both replicates (recomputed)
Compound in one experiment: C1COCCN1CCN2C3=CC=CC=C3N=C2NC(=O)C4=CC(=CC=C4)[N+](=O)[O-] [IRAK-1-4 Inhibitor I]
An outline of the steps:
(§1)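 Soluble protein was defined as the supernatant after 21,000xg for 90 min. It came from K562 cells at 2×10^6 cells/mL given 10 μM compound for 30 min, heated in aliquots for 3 min across 48°C-58°C, pooled, and extracted in PBS with 0.5% NP-40 at 4°C, and was quantified by TMTpro 16plex LC-MS/MS with equalised channel sums. Thermal stability against control samples, from duplicates, is reported as log2 fold change.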

Compound in another experiment: CC(C)N(C[C@H]1O[C@@H](n2cnc3c(N)ncnc32)[C@H](O)[C@@H]1O)[C@H]1C[C@@H](CCc2nc3cc(C(C)(C)C)ccc3[nH]2)C1 [pinometostat]
Summed up:
as §1

Compound in experiment [1]: CC(=O)c1cnc2ccc(-c3cc(Cl)c(O)c(Cl)c3)nc2c1N[C@H]1CC[C@H](CN(C)C)CC1
Summed up:
as §1

Compound in the next experiment: CC(C)(C)Cn1c(N)nc2ccc(-c3[nH]c(C(C)(C)C)nc3-c3ccc(F)cc3)nc21 [ralimetinib]
Summed up: as §1

Compound in experiment [2]: CC(C)C[C@@H](C=O)NC(=O)[C@H](CC(C)C)NC(=O)[C@H](CC(C)C)NC(=O)OCc1ccccc1
An outline of the steps:
as §1

Compound in experiment [3]: CC1=C(C(CC(=O)N1)C2=CC=C(C=C2)C(F)(F)F)C(=O)NC3=C(C=C4C(=C3)C=NN4)F
An outline of the steps: as §1

Compound in another experiment: C=CC(=O)N1CCC[C@@H](n2nc(-c3ccc(Oc4ccccc4)cc3)c3c(N)ncnc32)C1 [ibrutinib]
An outline of the steps:
as §1

Compound in experiment [4]: CC(C)(O)CC(=O)NCCn1ccc2ncnc(Nc3ccc(Oc4cccc(C(F)(F)F)c4)c(Cl)c3)c21
Summed up: as §1

Compound in experiment [5]: CC(C)C1=C2N=C(C=C(N2N=C1)NCC3=CC=CC=C3)NCCCCCCN
Summed up: as §1

Compound in experiment [6]: CC1=C(C2=C(C=C1)C(=O)C3=CC=CC=C3N2CCCN)C
An outline of the steps: as §1

For KRR1 (UniProt Q13601), the log2 fold change in the experiment with IRAK-1-4 Inhibitor I is inactive: -0.46; with pinometostat, inactive: 0.378.
JMJD8 (UniProt Q96S16): the log2 fold change with IRAK-1-4 Inhibitor I is inactive: -0.021; in experiment [1], inactive: -0.025; in the experiment with ralimetinib it was inactive: 0.011; in experiment [2], inactive: -0.066; in the experiment with pinometostat it was inactive: 0.018; in [3], inactive: -0.098.
Consider KIAA0930 isoform 2 (UniProt Q6ICG6), for which the log2 fold change is inactive: 0.028 with IRAK-1-4 Inhibitor I; inactive: 0.178 with ibrutinib; inactive: -0.018 in experiment [4]; inactive: -0.011 in [5]; inactive: -0.033 with pinometostat; inactive: 0.064 in [3].
With KDM1B (UniProt Q8NB78), the log2 fold change with IRAK-1-4 Inhibitor I is inactive: -0.075; with ibrutinib it was inactive: -0.042; in experiment [5], inactive: -0.185; with pinometostat, inactive: 0.116; in experiment [3], inactive: 0.023; in experiment [6], inactive: -0.107.
For KAT8 isoform 2 (UniProt Q9H7Z6), the log2 fold change with ibrutinib is inactive: -0.028; in [1] it was inactive: -0.04; with ralimetinib it was inactive: 0.042; in experiment [5], inactive: -0.029; in [2], inactive: 0.051; in [3], inactive: 0.023. Moreover, the log2 fold change in [6] was inactive: 0.069.
As to KIZ (UniProt Q2M2Z5), the log2 fold change was inactive: -0.075 with IRAK-1-4 Inhibitor I; inactive: 0.039 in [1]; inactive: 0.06 with ralimetinib; inactive: -0.107 in experiment [2]; inactive: 0.099 with pinometostat.
Consider KLHL7 (UniProt Q8IXQ5), for which the log2 fold change in the experiment with ibrutinib is inactive: 0.161; in experiment [1], inactive: 0.041; in [4] it was inactive: -0.057; in experiment [5], inactive: 0.164; in experiment [3] it was inactive: -0.22.
For KLF1 (UniProt Q13351), the log2 fold change was inactive: -0.053 with IRAK-1-4 Inhibitor I; inactive: -0.057 with ibrutinib; inactive: 0.113 in the experiment with ralimetinib; inactive: 0.157 in [2]; inactive: 0.153 in the experiment with pinometostat; inactive: -0.165 in experiment [3].
Regarding KIFAP3 (UniProt Q92845), the log2 fold change was inactive: 0.104 with IRAK-1-4 Inhibitor I; inactive: 0.178 in the experiment with ibrutinib; inactive: -0.024 in experiment [4]; inactive: 0.038 with pinometostat; inactive: -0.123 in [3].
With KMT2A isoform 3 (UniProt Q03164), the log2 fold change with ralimetinib was inactive: 0.218; in experiment [5], inactive: 0.013; in experiment [2], inactive: 0.069.
With KDM6A (UniProt O15550), the log2 fold change in experiment [1] is inactive: -0.3; with ralimetinib, inactive: 0; in experiment [4], inactive: -0.344; in [2], inactive: 0.086.
Turning to KCNH2 (UniProt Q12809), the log2 fold change with ralimetinib is inactive: -0.012; in experiment [4] it was inactive: -0.036; in [5], inactive: -0.418; with pinometostat, inactive: 0.581; in [6], inactive: -0.17.
For KMT2E (UniProt Q8IZD2), the log2 fold change was inactive: 0.062 in [4] and inactive: 0.104 in experiment [5].
With KIFC1 (UniProt Q9BW19), the log2 fold change in experiment [1] was inactive: -0.123; with ralimetinib, inactive: 0.094; in experiment [4], inactive: 0.154; in experiment [2] it was inactive: 0.464.
With KLHL17 (UniProt Q6TDP4), in experiment [4], the log2 fold change is inactive: -0.08.
For KCTD21 (UniProt Q4G0X4), the log2 fold change in [1] is inactive: 0.226.
As for KIF4A (UniProt O95239), in experiment [6], the log2 fold change was inactive: -0.021.
On to JOSD1 (UniProt Q15040), for which the log2 fold change in experiment [1] was inactive: -0.328; in experiment [4], inactive: -0.115; in experiment [5], inactive: 0.072.
For the target JCHAIN (UniProt P01591), the log2 fold change with ibrutinib was inactive: -0.089; in [3] it was inactive: -0.193.
With KIF20B isoform 2 (UniProt Q96Q89), the log2 fold change is inactive: 0.054 with ralimetinib and inactive: 0.224 in experiment [2].
On to KIF21A (UniProt H0YI78), for which the log2 fold change was inactive: 0.366 in the experiment with ralimetinib, inactive: -0.158 in [5] and inactive: 0.012 in experiment [2].
As for KLHDC10 (UniProt Q6PID8), the log2 fold change in experiment [6] is inactive: 0.038.
In the case of KIAA0040 (UniProt Q15053), the figures for the log2 fold change in experiment [1], in [5] and in [3] were inactive: -0.059, inactive: -0.098 and inactive: 0.003, respectively.
As for KBTBD7 (UniProt Q8WVZ9), the log2 fold change is inactive: -0.238 in experiment [5] and inactive: 0.097 in experiment [3].
Take KSR2 (UniProt Q6VAB6): the log2 fold change in experiment [4] is inactive: 0.195; in experiment [5] it was inactive: -0.112.
Take KLHDC2 (UniProt Q9Y2U9): the log2 fold change in experiment [3] was inactive: -0.073.
As to ITSN2 (UniProt Q9NZM3), the log2 fold change in [5] is inactive: 0.051.
Consider KIF20A (UniProt O95235), for which the log2 fold change in experiment [1] is inactive: 0.16; in experiment [4], inactive: -0.234.
For KLHL36 (UniProt Q8N4N3), the values for the log2 fold change in experiment [4] and in [3] were inactive: -0.1 and inactive: -0.348, respectively.
Regarding KDM3A (UniProt Q9Y4C1), the log2 fold change in [5] was inactive: 0.083.
As to KLHL20 (UniProt Q9Y2M5), the log2 fold change in experiment [1] is inactive: -0.075; with ralimetinib, inactive: 0.065; in experiment [5], inactive: 0.442; in experiment [2], inactive: -0.007; in experiment [3] it was inactive: -0.078; in [6], inactive: -0.086.
On to KRT10, A0A1B0GVI3, for which the log2 fold change in experiment [3] was inactive: 0.012.
Consider KLC3 isoform 3 (UniProt Q6P597), for which the log2 fold change in experiment [6] was inactive: -0.104.
Consider KLC1 isoform 3 (UniProt Q07866), for which the log2 fold change in [1] was inactive: -0.092.
Take KIF16B isoform 2 (UniProt Q96L93): the log2 fold change in [1] was inactive: -0.241; with ralimetinib, inactive: -0.104; in experiment [2], inactive: 0.008.
With KIF21B (UniProt O75037), the log2 fold change was inactive: 0.268 with ralimetinib; inactive: -0.059 in experiment [4]; inactive: 0.126 in [5]; inactive: 0.239 in [2]; inactive: -0.019 in experiment [3].
KHSRP (UniProt M0R3J3): the log2 fold change in experiment [4] was inactive: 0.224.
On to KIF13A isoform 4 (UniProt Q9H1H9), for which the log2 fold change in experiment [1] was inactive: 0.123.
As to KLHL42 (UniProt Q9P2K6), the log2 fold change with ibrutinib is inactive: -0.021; in [4], inactive: 0.019; in [6], inactive: 0.049.
On to KATNBL1 (UniProt Q9H079), for which the log2 fold change in the experiment with ralimetinib is inactive: 0.187; in experiment [2], inactive: -0.163; in experiment [6] it was inactive: -0.083.
As for ITSN1 (UniProt Q15811), the log2 fold change was inactive: 0.005 in experiment [1] and inactive: -0.132 in [4].
KCTD7 (UniProt Q96MP8): the log2 fold change in the experiment with ibrutinib was inactive: -0.06; in experiment [3], inactive: -0.092.
